Out of some 330,000 compounds screened, about 7,700 (2.3%) were called active. This list was built around the results that the source calls inconclusive (neither active nor inactive); the mix of calls is not that of the screen. The call rests on the fitted dose curve; in most records, active means well fitted inhibition curve with a large enough effect; inconclusive means small, poorly fitted or top-dose-only effect, or effect the other way; inactive means flat fitted curve, though single readings scatter. Potencies beside an inconclusive call are fits to weak or partial responses and may not hold up.
Experiment: qHTS screen for small molecules that inhibit ELG1-dependent DNA repair in human embryonic kidney (HEK293T) cells expressing luciferase-tagged ELG1; further: nearly all actives have a fitted effect of over 55% in size
Conditions: HEK293T ELG1-luciferase reporter, luminescence, 16 h, DNA damage induced by 5-fluorouridine; series mostly up to 46.1 µM
Method in brief: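 Quantitative HTS, concentration-response format. 2,000 cells/well co-treated with 5-fluorouridine and compound, 16 hr in 5% CO2 at 37 °C; ONE-Glo luminescence read after 30 min.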
In the case of CC(C)(C)OC(=O)[C@H](Cc1ccccc1)NC(=O)c1nc[nH]c1C(=O)NC1CCNCC1, the Potency is reported as “inactive”.
In the case of Fc1cccc(/C=N/Nc2cc(N3CCOCC3)ncn2)c1, the Potency is reported as inconclusive: 1.46 µM [activator, full curve].
In the case of Cn1c(=O)n(C)c2cc(CN3C(=O)OC(C)(C)C3(C)O)ccc21 (stereo not given), the Potency is reported as inconclusive: 23.1 µM [activator, single point].
For Cc1ccc(OCc2cc(C(=O)NC(C)Cc3cccc(C)n3)no2)cn1 (stereo not given), the Potency was inconclusive: 7.3 µM [inhibitor, partial curve, poor fit].
With COc1cc2c(cc1O)CCN(C(=O)c1ccco1)C2C (stereo not given) the Potency was “inactive”.
With O=C(NNC(=O)C1CCCN(S(=O)(=O)c2ccc3ccccc3c2)C1)C1CC1 (stereo not given) the Potency was “inactive”.
For Cc1nc(C(=O)Nc2ccccc2)sc1C1(C)CC(c2cccc([N+](=O)[O-])c2)=NO1 (stereo not given), the Potency was inconclusive: 16.4 µM [inhibitor, single point].
In the case of Cc1c(C(=O)NCC2CCCO2)oc2ccc(Br)cc12 (stereo not given), the Potency is reported as inconclusive: 9.2 µM [activator, partial curve].
With Cc1c(NC(=O)c2ccc(N3CCCC3)c([N+](=O)[O-])c2)cccc1-c1nc2ccccc2s1 the Potency was inconclusive: 9.2 µM [inhibitor, partial curve, poor fit].
In the case of C=CC[C@@H](CC(=O)NCCO)C(=O)N[C@@H](COC(=O)[C@@H](CC=C)Cc1ccc(F)cc1)Cc1c[nH]c2ccccc12, the Potency is reported as “inactive”.
In the case of S=C(N=Nc1ccccc1)NNc1ccccc1, the Potency is reported as inconclusive: 18.4 µM [activator, partial curve].
For O=C(CCl)NC(=O)NC12CC3CC(CC(C3)C1)C2, the Potency was active: 16.4 µM.
For CCC1Nc2ccccc2-c2nnc(SC)nc2O1 (stereo not given), the Potency was inconclusive: 23.1 µM [activator, single point].
With CCn1c(C)nc2cc(S(=O)(=O)C(F)F)ccc21 the Potency was “inactive”.
For O=c1[nH]c(Cc2ccccn2)nc2scc(-c3ccccc3Cl)c12, the Potency was inconclusive: 23.1 µM [inhibitor, partial curve].
With Cc1cccc(C)c1NC(=S)NC(C)CCc1ccccc1 (stereo not given) the Potency was “inactive”.
With O=C(CN1C(=O)C2CC=CCC2C1=O)Nc1nc(-c2ccc(F)c(F)c2)cs1 (stereo not given) the Potency was inconclusive: 29.1 µM [inhibitor, single point].
With N/C(=N\OC(=O)C1CCCCC1)c1ccc(Br)cc1 the Potency was inconclusive: 20.6 µM [activator, partial curve].
In the case of CCN(CC)CCn1c2ccccc2c2nc3ccc([N+](=O)[O-])cc3cc21, the Potency is reported as inconclusive: 25.9 µM [activator, single point].
In the case of Cc1ccc(OCc2nc(-c3cccs3)no2)c([N+](=O)[O-])c1, the Potency is reported as inconclusive: 6.51 µM [activator, partial curve].

From PubChem BioAssay AID504467 (National Center for Advancing Translational Sciences (NCATS), 2011)
Potency means the concentration at half of the fitted maximal effect.
